{"source": "PubChem BioAssay AID1259327 (Drosophila RNAi Screening Center, 2017)", "test": "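Data from controls in screens of zinc and manganese toxicity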", "system": "Drosophila S2R+ cells", "reagent": "long dsRNA against Drosophila genes", "time to read-out": "5 days (water added on day 4, read one day later)", "challenge": "water added as vehicle, no metal, one day before read-out", "measured": "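Total ATP measured by luciferase light, scaled to plate mean, duplicates averaged, then z-scored across plates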", "reading the numbers": "ATP z-score: higher = more total ATP than typical wells; ATP luminescence: higher = more total ATP", "rule for the call": "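Called active when the ATP z-score exceeds 1.5 or falls below -1.5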", "calls": "active = hit: ATP up or down; inactive = no clear ATP change", "note": "The whole screen tested about 3,100 reagents; below is a part drawn at random. 378 of them (12%) count as active. 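Hits include both directions; z-score sign shows ATP rise or fall; raw luminescence values are not plate-normalised.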 Not stated in the record: the amount of reagent."}
{"predicted target": "CG13384", "amplicon": "DRSC02258", "ATP z-score, duplicate mean": 0.0698, "ATP luminescence, replicate 1 (RLU)": 4.41e5, "ATP luminescence, replicate 2 (RLU)": 5.30e5, "Outcome": "inactive"}
{"predicted target": "CG31321", "amplicon": "DRSC13028", "ATP z-score, duplicate mean": 0.0923, "ATP luminescence, replicate 1 (RLU)": 7.11e5, "ATP luminescence, replicate 2 (RLU)": 7.97e5, "Outcome": "inactive"}
{"predicted target": "CG31321", "amplicon": "DRSC27335", "ATP z-score, duplicate mean": 3.77, "ATP luminescence, replicate 1 (RLU)": 8.38e5, "ATP luminescence, replicate 2 (RLU)": 9.49e5, "Outcome": "active"}
{"predicted target": "CG4991", "amplicon": "DRSC19928", "ATP z-score, duplicate mean": 0.188, "ATP luminescence, replicate 1 (RLU)": 7.58e5, "ATP luminescence, replicate 2 (RLU)": 6.93e5, "Outcome": "inactive"}
{"predicted target": "CG4991", "amplicon": "DRSC39735", "ATP z-score, duplicate mean": 0.422, "ATP luminescence, replicate 1 (RLU)": 5.62e5, "ATP luminescence, replicate 2 (RLU)": 4.23e5, "Outcome": "inactive"}
{"predicted target": "CG13575", "amplicon": "DRSC22851", "ATP z-score, duplicate mean": 0.816, "ATP luminescence, replicate 1 (RLU)": 7.08e5, "ATP luminescence, replicate 2 (RLU)": 5.89e5, "Outcome": "inactive"}
{"predicted target": "CG13575", "amplicon": "DRSC39524", "ATP z-score, duplicate mean": -0.12, "ATP luminescence, replicate 1 (RLU)": 5.31e5, "ATP luminescence, replicate 2 (RLU)": 3.63e5, "Outcome": "inactive"}
{"predicted target": "Eglp3", "amplicon": "DRSC04293", "ATP z-score, duplicate mean": 0.133, "ATP luminescence, replicate 1 (RLU)": 7.90e5, "ATP luminescence, replicate 2 (RLU)": 6.91e5, "Outcome": "inactive"}
{"predicted target": "Eglp3", "amplicon": "DRSC25630", "ATP z-score, duplicate mean": -0.803, "ATP luminescence, replicate 1 (RLU)": 7.83e5, "ATP luminescence, replicate 2 (RLU)": 6.74e5, "Outcome": "inactive"}
{"predicted target": "Or10a", "amplicon": "DRSC20264", "ATP z-score, duplicate mean": -0.102, "ATP luminescence, replicate 1 (RLU)": 6.91e5, "ATP luminescence, replicate 2 (RLU)": 7.67e5, "Outcome": "inactive"}
{"predicted target": "Or10a", "amplicon": "DRSC27634", "ATP z-score, duplicate mean": -1.06, "ATP luminescence, replicate 1 (RLU)": 9.32e5, "ATP luminescence, replicate 2 (RLU)": 9.98e5, "Outcome": "inactive"}
{"predicted target": "CG12194", "amplicon": "DRSC00345", "ATP z-score, duplicate mean": -0.275, "ATP luminescence, replicate 1 (RLU)": 6.93e5, "ATP luminescence, replicate 2 (RLU)": 7.01e5, "Outcome": "inactive"}
{"predicted target": "CG12194", "amplicon": "DRSC24918", "ATP z-score, duplicate mean": -0.26, "ATP luminescence, replicate 1 (RLU)": 9.78e5, "ATP luminescence, replicate 2 (RLU)": 1.05e6, "Outcome": "inactive"}
{"predicted target": "Ranbp21", "amplicon": "DRSC19447", "ATP z-score, duplicate mean": 0.456, "ATP luminescence, replicate 1 (RLU)": 7.58e5, "ATP luminescence, replicate 2 (RLU)": 7.48e5, "Outcome": "inactive"}
{"predicted target": "Ranbp21", "amplicon": "DRSC39764", "ATP z-score, duplicate mean": -0.00995, "ATP luminescence, replicate 1 (RLU)": 4.89e5, "ATP luminescence, replicate 2 (RLU)": 4.67e5, "Outcome": "inactive"}
{"predicted target": "Gat", "amplicon": "DRSC17144", "ATP z-score, duplicate mean": -0.72, "ATP luminescence, replicate 1 (RLU)": 5.17e5, "ATP luminescence, replicate 2 (RLU)": 7.61e5, "Outcome": "inactive"}
{"predicted target": "Gat", "amplicon": "DRSC39474", "ATP z-score, duplicate mean": -0.951, "ATP luminescence, replicate 1 (RLU)": 3.90e5, "ATP luminescence, replicate 2 (RLU)": 3.90e5, "Outcome": "inactive"}

Active calls (from the list above):
{"predicted target": "CG31321", "amplicon": "DRSC27335", "ATP z-score, duplicate mean": 3.77, "ATP luminescence, replicate 1 (RLU)": 8.38e5, "ATP luminescence, replicate 2 (RLU)": 9.49e5, "Outcome": "active"}
